Assay [1] concerns the target T1, Flag-tagged human Osteolectin expressed in MC3T3-E1 cells (human) (UniProt Q9Y240).
T1 sequence: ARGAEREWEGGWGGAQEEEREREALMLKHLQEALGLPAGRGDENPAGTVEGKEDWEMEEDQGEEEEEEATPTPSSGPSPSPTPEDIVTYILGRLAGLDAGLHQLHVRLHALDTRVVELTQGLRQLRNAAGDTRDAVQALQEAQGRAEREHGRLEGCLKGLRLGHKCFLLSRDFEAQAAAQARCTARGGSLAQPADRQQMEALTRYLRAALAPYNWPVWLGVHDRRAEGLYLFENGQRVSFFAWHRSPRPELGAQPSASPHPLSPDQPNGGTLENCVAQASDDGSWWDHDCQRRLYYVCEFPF
Description: co-IP; Flag-tagged human Osteolectin overexpressed in MC3T3-E1 cells for 48 hr; lysate (50 mM Tris-HCl, 150 mM NaCl, 1% NP-40, 0.5% sodium deoxycholate, 0.1% SDS) precipitated with anti-FLAG M2 Affinity Gel 2 hr at 4°C, washed six times; western blot for endogenous integrins.

Sequences of proteins named here, by UniProt entry; tags and fusion partners are left off. A change or cut given only in a name is not applied to a line headed by its entry. Residues count along the entry.
UniProt P02769, residues 25-607: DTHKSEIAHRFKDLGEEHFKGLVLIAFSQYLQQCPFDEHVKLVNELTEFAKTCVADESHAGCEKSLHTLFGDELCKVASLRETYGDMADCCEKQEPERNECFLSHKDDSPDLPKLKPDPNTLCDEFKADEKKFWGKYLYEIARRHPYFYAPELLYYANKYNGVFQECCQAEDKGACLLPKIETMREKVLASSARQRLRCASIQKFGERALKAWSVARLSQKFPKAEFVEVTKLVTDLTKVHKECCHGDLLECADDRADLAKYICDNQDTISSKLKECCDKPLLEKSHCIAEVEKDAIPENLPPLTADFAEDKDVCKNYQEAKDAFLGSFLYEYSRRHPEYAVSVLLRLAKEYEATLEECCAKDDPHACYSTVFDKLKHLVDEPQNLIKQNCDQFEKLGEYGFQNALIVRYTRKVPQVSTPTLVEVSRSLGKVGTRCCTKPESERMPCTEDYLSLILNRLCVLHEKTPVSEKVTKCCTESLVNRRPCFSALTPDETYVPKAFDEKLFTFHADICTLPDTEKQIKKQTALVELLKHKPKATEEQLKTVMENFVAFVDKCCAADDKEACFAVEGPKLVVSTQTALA
UniProt P61622: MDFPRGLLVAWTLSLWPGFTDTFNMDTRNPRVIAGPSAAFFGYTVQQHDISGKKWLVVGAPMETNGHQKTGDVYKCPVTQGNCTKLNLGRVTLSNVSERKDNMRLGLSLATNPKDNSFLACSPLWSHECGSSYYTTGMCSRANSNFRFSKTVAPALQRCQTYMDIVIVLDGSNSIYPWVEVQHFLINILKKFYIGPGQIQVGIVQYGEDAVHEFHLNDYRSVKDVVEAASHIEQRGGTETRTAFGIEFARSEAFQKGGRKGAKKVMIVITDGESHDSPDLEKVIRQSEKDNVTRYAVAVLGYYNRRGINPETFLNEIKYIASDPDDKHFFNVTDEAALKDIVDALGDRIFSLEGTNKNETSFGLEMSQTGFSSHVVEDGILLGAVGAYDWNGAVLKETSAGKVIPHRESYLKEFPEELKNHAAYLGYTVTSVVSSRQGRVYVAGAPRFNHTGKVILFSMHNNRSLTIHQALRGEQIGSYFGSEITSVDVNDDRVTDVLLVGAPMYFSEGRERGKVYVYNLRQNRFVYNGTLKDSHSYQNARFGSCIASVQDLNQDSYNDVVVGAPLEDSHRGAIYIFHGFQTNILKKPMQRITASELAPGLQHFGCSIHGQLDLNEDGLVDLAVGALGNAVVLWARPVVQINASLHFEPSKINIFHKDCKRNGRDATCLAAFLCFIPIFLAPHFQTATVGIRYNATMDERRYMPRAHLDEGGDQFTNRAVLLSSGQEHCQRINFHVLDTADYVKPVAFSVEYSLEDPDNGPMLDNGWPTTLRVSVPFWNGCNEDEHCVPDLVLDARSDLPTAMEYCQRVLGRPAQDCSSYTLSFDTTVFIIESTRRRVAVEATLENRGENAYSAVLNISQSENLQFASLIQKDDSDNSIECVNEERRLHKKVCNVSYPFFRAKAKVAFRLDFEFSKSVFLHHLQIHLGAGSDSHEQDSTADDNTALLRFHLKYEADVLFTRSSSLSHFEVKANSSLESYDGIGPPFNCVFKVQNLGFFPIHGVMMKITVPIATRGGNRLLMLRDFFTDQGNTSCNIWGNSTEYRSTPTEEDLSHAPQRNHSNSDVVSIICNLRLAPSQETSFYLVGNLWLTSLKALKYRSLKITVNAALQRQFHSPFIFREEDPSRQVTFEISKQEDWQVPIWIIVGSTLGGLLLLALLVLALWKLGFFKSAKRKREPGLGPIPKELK
UniProt Q9UKX5: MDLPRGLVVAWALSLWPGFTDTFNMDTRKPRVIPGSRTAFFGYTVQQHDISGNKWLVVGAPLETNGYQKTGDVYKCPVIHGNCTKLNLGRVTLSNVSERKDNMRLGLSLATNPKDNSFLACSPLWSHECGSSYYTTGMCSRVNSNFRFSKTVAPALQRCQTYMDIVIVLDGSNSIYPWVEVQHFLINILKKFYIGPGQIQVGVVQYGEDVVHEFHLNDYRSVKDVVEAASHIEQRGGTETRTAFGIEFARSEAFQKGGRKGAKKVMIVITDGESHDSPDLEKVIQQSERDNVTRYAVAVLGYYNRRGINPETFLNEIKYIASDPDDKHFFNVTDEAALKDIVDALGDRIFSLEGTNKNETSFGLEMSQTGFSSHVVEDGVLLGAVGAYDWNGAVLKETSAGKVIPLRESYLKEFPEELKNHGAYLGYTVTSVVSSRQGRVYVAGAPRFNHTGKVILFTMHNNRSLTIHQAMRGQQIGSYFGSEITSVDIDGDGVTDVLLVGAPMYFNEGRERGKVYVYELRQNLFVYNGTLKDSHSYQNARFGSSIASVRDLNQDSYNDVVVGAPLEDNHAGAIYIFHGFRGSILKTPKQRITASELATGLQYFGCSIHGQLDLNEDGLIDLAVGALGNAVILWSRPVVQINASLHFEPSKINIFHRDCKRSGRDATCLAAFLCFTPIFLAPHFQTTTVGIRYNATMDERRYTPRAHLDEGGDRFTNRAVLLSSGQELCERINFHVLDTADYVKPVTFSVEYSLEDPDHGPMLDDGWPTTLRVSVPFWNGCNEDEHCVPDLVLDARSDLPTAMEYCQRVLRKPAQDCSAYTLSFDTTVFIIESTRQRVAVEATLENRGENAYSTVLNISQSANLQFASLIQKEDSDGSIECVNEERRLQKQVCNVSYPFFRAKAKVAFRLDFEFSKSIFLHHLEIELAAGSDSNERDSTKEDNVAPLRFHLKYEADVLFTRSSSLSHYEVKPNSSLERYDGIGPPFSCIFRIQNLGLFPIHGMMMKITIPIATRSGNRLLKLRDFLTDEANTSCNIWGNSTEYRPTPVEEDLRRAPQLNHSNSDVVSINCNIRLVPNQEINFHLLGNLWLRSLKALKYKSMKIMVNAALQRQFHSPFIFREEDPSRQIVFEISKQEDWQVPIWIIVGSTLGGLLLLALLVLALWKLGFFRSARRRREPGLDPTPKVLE

In assay [2] the target is Bovine serum albumin (bovine) (UniProt P02769). Description: ELISA; microtiter well binding assay; plates coated with 10 nM recombinant human Osteolectin, Pro-Collagen 1α or BSA overnight at 4°C, blocked with 10 mg/ml BSA; 6xHis tagged integrins in TBS (50 mM Tris-Cl pH 7.5, 150 mM NaCl) with 1 mM MnCl2; bound integrin detected with anti-His tag antibody and HRP secondary, OD 450 nm; both purified.

Assay [3] addresses T2, recombinant human Osteolectin (human) (UniProt Q9Y240).
T2 sequence: T1 sequence
Description: ELISA; microtiter well binding assay of integrin α11β1 on coated recombinant human Osteolectin in the presence of 200 nM RGDS peptide; both purified.

Results are given in words; binding and its absence hold for the method and conditions named. For part of these data: In cells and extracts the contact can be indirect. Some binding calls cover weakened binding; strength is not graded here. For part of these data: Tags and fused reporters may be left off the sequences shown.

For the substance “endogenous integrin α11β1 of MC3T3-E1 cells (from UniProt P61622 23-1188; P09055 21-798) (complex)”, the binding result in assay [1] is “binds”.
On to “recombinant human integrin α11β1 (from UniProt Q9UKX5 23-1141; P05556 21-728) (complex)”, for which the binding result in assay [2] is “no binding”; in assay [3] it was “binds”.

The record behind these values is publication PMC6349404.
